# Source: PMC10163288
# The list shows a part of the results.
# B1: il2ra_site2_3nfp_normal_mot_HHH_b2_06150_000000217_0001_39_53_H_._HHH_b1_00039_af2_0001_0000100002_0000001_0_af2pred_0001_1_af2pred_swapped (protein)
# chain: SSSSSSSIEELAEEARKLAEELGDESTRHIIRALLFLYELLGDPRAEEELERLLEALKSSSSSSS
# B2: il2ra_site2_2erj_normal_mot_ems_3hC_1315_af2_000000245_0001_45_63_H_._a2bf7c1b5df5f4a6a28f683756f784c8_0001_1_0001_0000100004_0000001_0_af2pred_0001_af2pred (protein)
# chain: SEEVVEKLRRAVEEGTLEEVLEELLKEAREKGDPELLLAVLLAIRSLQLGVPPEEVVRKFEEALR
# B3: il2ra_site1_3nfp_normal_mot_HHH_b1_01731_af2_000000028_0001_1_17_H_._aa6083f578daa685d2bbf802523f4e6a_0001_af2_0001_0000600023_0000001_0 (protein)
# chain: SEVEEIAEKAEELADDYDIRQVLKILLELYKRIGDPYAEELLQRLLELLEEGDPEEAKKLVKKFI
# B4: il2ra_site2_2erj_sap_18_mot_0ec3dbe5a60479548ca220575d6efbeb_0001_000000122_0001_35_49_H_._09e7cb7e633bb54c4420ff763e5edef5_0001_0001_0000300039_0000001_1_0001 (protein)
# chain: SPEYEEILREAEEIVKEAKKNNDLHKVFEALNLVMHAFTKFLDDEEAEEEIKRVLEEIWREVHKS
# B5: il2ra_site2_2erj_sap_22_mot_HHH_b1_06697_000000025_0001_41_54_H_._HHH_b2_07218_0001_0003100114_0000001_0_0001 (protein)
# chain: SSSSEEDLRFTYEVANRLTHLISEGNKEEAEELLEEARRQLEEAGDEQAVEFLEEVVENLASSSS
# B6: il2ra_site2_3nfp_normal_mot_HHH_b1_03851_000000147_0001_21_38_H_._HHH_b1_04525_0001_0000500031_0000001_0 (protein)
# chain: SSSSDEEREEARRLFEELQELLEENDRHAVFEVLAELFELAARTGDEEAARLVLEIYAQLRSSSS
# B7: il2ra_site2_3nfp_normal_mot_HHH_b1_03223_af2_000000037_0001_1_19_H_._44c1d34e7de0649e2bc3bb7207530e70_0001_0001_0000100005_0000001_0 (protein)
# chain: SERERLLELAWELRNPEVFILISLVIELEERGDPEAAKEVEEVAEELLRGEIPPEEVQKIAAKLD
# B8: il2ra_site2_3nfp_normal_mot_cdc2c7e6ec3782e52408388447766025_0001_000000024_0001_37_50_H_._HHH_b1_02097_0001_0000200004_0000001_0 (protein)
# chain: SSSSDLFEIAELALEADELDREGNPEEAERVLEEALKLAEEAGNEWLEEYIRARLELIRRSSSSS
# B9: il2ra_site2_2erj_sap_12_mot_HHH_b1_00376_000000139_0001_38_52_H_._HHH_b1_01250_0001_0000300012_0000001_0_0001 (protein)
# chain: SSSSDWLHELYELAVELLHLSARRDKEEFERVYEEIRRLVEETNSESAKRILEHIQRLFEGSSSS
# B10: il2ra_site2_2erj_normal_mot_HHH_b2_02949_000000065_0001_1_20_H_._HHH_b1_04625_0001_0000100006_0000001_0 (protein)
# chain: SSSSDEELRFAFEALSRLMHLISNGNPEEAEKLVKEAREILEELGNPELAENLEEHFEDLLSSSS
# B11: il2ra_site2_3nfp_normal_mot_HHH_b1_07556_000000077_0001_42_55_H_._HHH_b1_05931_0001_0000200019_0000001_0 (protein)
# chain: SSSSDVKEEVERLLEEVRELLEEGNPEEAREVLAEAVHLAYERGDSEAFFLVAEFIFEIEQSSSS
# B12: il2ra_site2_3nfp_normal_mot_HHH_b1_04762_000000120_0001_42_54_H_._HHH_b2_07046_0001_0000200026_0000001_0 (protein)
# chain: SSSSDAEEYLRAALLLLREAVERGDEEQAERHAKILIQAAEAIGDEEVLKEAERLLEELNSSSSS
# B13: il2ra_site1_2b5i_sap_22_mot_a1647c6a1bc1795bd61f8ac90a0f45d0_0001_1_000000140_0001_1_13_H_._HHH_b1_03195_0001_0000200020_0000001_0_0001 (protein)
# chain: SSSDHNELARFATEVVWRLRWELGLSNEQARELNQRASELVWEGVSPEEIEEILRELAEELSSSS
# B14: il2ra_site1_1z92_sap_7_mot_bc38a9f498cb1f18218c93d69bbf9b39_0001_af2_000000137_0001_15_32_H_._1af3d26173322421766602107bf007ea_0001_af2_0001_0000400003_0000001_ … (protein)
# chain: SIKEDFEQAKKNGLSPEKAAYVLIKALAIMERVPPEEAIEILLRAAREKGDEELFEVVQELAEDP
# B15: il2ra_site1_2b5i_normal_mot_HHH_b1_01949_af2_000000166_0001_1_19_H_._HHH_b2_06657_af2_0001_0000100001_0000001_0_af2pred_0001_af2pred (protein)
# chain: SSSSDEEFEEVTELYRRASELFRRGNKEEARKLLEEALELAEEAGDEVAKEDLRRLLELLESSSS
# B16: il2ra_site2_3nfp_normal_mot_HHH_b1_02297_000000279_0001_41_58_H_._HHH_b2_02322_0001_0000200006_0000001_0 (protein)
# chain: SSSSSSSDEEEVEELLEEAKRIDDEFRFFAVLNEAAFIAYQSDNEELERLVKHVTQEFFSSSSSS
# B17: il2ra_site1_2b5i_sap_9_mot_9a773f325bc24391a11cd301277c1e75_0001_1_000000041_0001_1_15_H_._ems_3hM_3702_0001_0000100013_0000001_0_0001_af2pred_0001_af2pred_1 (protein)
# chain: SSSSSERVVELIEEANELFKNGDPEEAEKVAEEALRLAEEEGSPSLERFVRVALKILRESRSSSS
# B18: il2ra_site2_2erj_normal_mot_HHH_b1_03107_000000098_0001_39_52_H_._HHH_b2_04766_0001_0000400028_0000001_1 (protein)
# chain: SSSSSREAWELAARASARALELFKRGNPEEARELLEEALEEVRRLGNEYALRYLEFARRDLSSSS
# B19: il2ra_site1_2b5i_normal_mot_HHH_b2_04910_000000118_0001_1_19_H_._HHH_b1_01115_0001_0000100003_0000001_0 (protein)
# chain: SSSSSDETKRAAELFREADELDKNGNPEEAQKVLEEALEIAEEGGSPLARMIESALEQTRSSSSS
# Target: il2ra, P01589
# Assay: yeast display titration
row,Binder,apparent Kd
1,B1,inactive: no binding seen
2,B2,inactive: no binding seen
3,B3,inactive: no binding seen
4,B4,inactive: no binding seen
5,B5,inactive: no binding seen
6,B6,inactive: no binding seen
7,B7,inactive: no binding seen
8,B8,inactive: no binding seen
9,B9,inactive: no binding seen
10,B10,inactive: no binding seen
11,B11,inactive: no binding seen
12,B12,inactive: no binding seen
13,B13,inactive: no binding seen
14,B14,inactive: no binding seen
15,B15,inactive: no binding seen
16,B16,inactive: no binding seen
17,B17,inactive: no binding seen
18,B18,inactive: > 296 nM
19,B19,inactive: no binding seen

# Random excerpt: 2 entries already listed.
row,Binder,apparent Kd
17,B17,inactive: no binding seen
15,B15,inactive: no binding seen
